These are yes or no findings as the source states them, for the method shown. In cells and extracts the contact can be indirect. Some results given as binding are weak or reduced against the parent protein; the word gives no strength. For some assays here: Where a sequence is shown, tags or fusion partners need not be part of it.
How the values were obtained:
[1] = biological target: kinase dead CDKL5 (K42R) fused to a C-terminal 3xFLAG (human) (UniProt O76039); experiment: co-IP
[2] = biological target: T1, WT CDKL5 fused to a C-terminal 3xFLAG (human) (UniProt O76039); experiment: co-IP
T1 sequence: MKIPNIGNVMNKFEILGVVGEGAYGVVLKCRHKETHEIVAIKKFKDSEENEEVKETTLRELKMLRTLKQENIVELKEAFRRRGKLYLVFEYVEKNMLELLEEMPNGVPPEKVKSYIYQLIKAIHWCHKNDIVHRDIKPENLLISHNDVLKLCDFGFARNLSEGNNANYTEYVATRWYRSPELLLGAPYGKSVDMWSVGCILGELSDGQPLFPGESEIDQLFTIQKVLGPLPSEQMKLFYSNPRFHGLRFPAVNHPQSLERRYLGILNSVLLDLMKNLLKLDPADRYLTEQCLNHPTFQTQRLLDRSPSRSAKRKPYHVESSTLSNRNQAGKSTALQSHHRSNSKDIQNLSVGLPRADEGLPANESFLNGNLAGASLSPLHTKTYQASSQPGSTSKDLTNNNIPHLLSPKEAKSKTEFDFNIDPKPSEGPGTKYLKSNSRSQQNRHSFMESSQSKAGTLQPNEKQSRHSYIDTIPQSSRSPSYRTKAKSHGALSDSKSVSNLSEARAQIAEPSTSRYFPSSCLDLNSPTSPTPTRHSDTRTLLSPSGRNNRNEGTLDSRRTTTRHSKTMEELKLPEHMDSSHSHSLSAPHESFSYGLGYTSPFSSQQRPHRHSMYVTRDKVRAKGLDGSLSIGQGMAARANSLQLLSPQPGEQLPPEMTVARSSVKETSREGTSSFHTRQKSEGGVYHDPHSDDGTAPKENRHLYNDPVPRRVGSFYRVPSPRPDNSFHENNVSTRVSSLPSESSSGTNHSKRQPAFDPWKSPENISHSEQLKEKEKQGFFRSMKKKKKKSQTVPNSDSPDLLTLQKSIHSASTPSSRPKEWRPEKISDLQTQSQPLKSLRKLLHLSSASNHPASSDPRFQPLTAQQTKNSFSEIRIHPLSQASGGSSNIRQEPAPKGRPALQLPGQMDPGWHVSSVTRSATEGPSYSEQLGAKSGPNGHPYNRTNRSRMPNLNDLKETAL

In the case of “p62/sequestosome 1 (SQSTM1), endogenous in HeLa cells (from UniProt Q13501 1-440)”, the binding [1] is reported as “binds” and the binding [2] is reported as “binds”.

Reference: publication doi:10.1101/2022.09.20.508746
